The values below come from PubChem BioAssay AID493014 (National Center for Advancing Translational Sciences (NCATS), 2011).

This is one part of the list. These are further read-outs of the screen, such as a control signal, another cell line or another target. No call is given for them. Most of these compounds were active or inconclusive in the main read-out, so they are no random draw. Potencies come from curve fits of mixed quality, noted in brackets.

The nature of the experiment: qHTS Assay to Find Inhibitors of Chronic Active B-Cell Receptor Signaling. As to conditions: ABC-DLBCL IkBa-CBG/CBR reporter, luminescence ratio (green luciferase fused to IkBa over red control in TMD8 lymphoma cells), 4 h. The gist of the method:
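TMD8 ABC-DLBCL cells carrying doxycycline-inducible green luciferase fused to IkappaBalpha plus unfused red luciferase were exposed to compounds (up to 46 uM) for 4 hrs at 37C. Activity came from the overlap-corrected green/red luminescence ratio.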
A general note: qHTS replaces the single test concentration by a dilution series.

Setting [1] is: measured here: CBR red luminescence, cell number.
The mark [2] stands for this setting: measured here: IkBa-CBG green luminescence.

A word on the AC50: it is the concentration giving half of the maximal activity seen. Take `CCC(C(=O)NCC1CCCO1)n1nc(C)c2sc3ccccc3c2c1=O` (stereo not drawn): the AC50 under setting [1] is 2.51 µM [rising, partial curve, poor fit].

On to `CCOC(=O)c1nc(C)sc1-c1ccnn1S(=O)(=O)c1cccc(Cl)c1`, for which the AC50 under setting [1] was 0.1 µM [falling, full curve, poor fit].

`CCOC(=O)[C@@H]1[C@H]2COc3ccccc3[C@H]2N2C(=O)N(c3ccc(Cl)cc3)C(=O)[C@]12C`: the AC50 under setting [1] is 22.4 µM [falling, single point].

For the compound `CNC(=O)COC(=O)c1ccc(NC(=O)CC#N)cc1`, the AC50 under setting [1] is 7.31 µM [falling, partial curve, poor fit].

As to `C/C(=N\NC(=O)C1COc2ccccc2O1)c1ccccn1` (stereo not drawn), the AC50 was 18.4 µM [rising, partial curve] under setting [1] and 18.4 µM [falling, single point] under setting [2].

In the case of `COc1ccc([N+](=O)[O-])cc1N/C(=N/S(=O)(=O)c1ccccc1)c1ccccc1`, the AC50 under setting [1] was 35.5 µM [falling, single point].

Regarding `O=C(Nc1ccc2c(c1)OCCO2)C(=O)c1c[nH]c2ccccc12`, the AC50 under setting [1] was 2 µM [falling, partial curve, poor fit].

Regarding `COc1cc(SC#N)ccc1N=Cc1c(C)[nH]n(-c2cccc3ccccc23)c1=O`, under setting [1], the AC50 is 0.631 µM [falling, partial curve, poor fit].

In the case of `CCCCN1CC[C@@H]2C=CC[C@H](C(=O)OC)[C@@H]2C1=O`, the AC50 under setting [1] was 25.9 µM [rising, single point].

Take `COc1cccc(NC(=O)CSc2nc3n[nH]c(C)c3c(=N)n2-c2cccc(OC)c2)c1`: the AC50 under setting [1] is 7.08 µM [falling, partial curve].

Take `COc1cccc(CNC(=O)c2ccc(NS(=O)(=O)c3ccc4[nH]c(=O)[nH]c4c3)cc2)c1`: under setting [1], the AC50 is 32.6 µM [rising, single point].

As for `COc1cccc(N/C(C)=C/C(=O)c2ccc(Br)cc2)c1`, the AC50 under setting [1] is 32.6 µM [falling, single point].

Take `COc1cc(/C=C/C(=O)OCC(=O)NCc2ccc(F)cc2)ccc1O`: the AC50 by setting is: under setting [1], 29.1 µM [rising, single point]; under setting [2], 20.6 µM [falling, single point].

As for `COc1ccc(CC(=O)NC(C)c2nnc(SCC(=O)c3ccc(Br)cc3)n2C)cc1` (stereo not drawn), the AC50 by setting is: under setting [1], 29.1 µM [falling, single point]; under setting [2], 29.1 µM [rising, partial curve, poor fit].

For `CCCCC/C=N/NC(=O)c1[nH]c2ccc([N+](=O)[O-])cc2c1C`, under setting [1], the AC50 is 8.91 µM [falling, partial curve].

On to `C/C(N)=C(/C#N)C(=O)CSc1nc2ccccc2c(=O)n1Cc1ccc(F)cc1`, for which, under setting [1], the AC50 was 8.91 µM [falling, single point].

As for `O=C(NCCN1CCN(c2ccccc2)CC1)Nc1ccccc1Br`, the AC50 under setting [1] is 35.5 µM [rising, single point].

Take `N#C/C(=C/c1ccc(Br)o1)C(N)=O`: the AC50 under setting [1] is 23.1 µM [falling, single point].

In the case of `O=C(Oc1ccccc1/C=C\C(=O)c1cc2ccccc2o1)c1cccc(F)c1`, the AC50 under setting [1] is 0.517 µM [falling, full curve].

In the case of `CNC(=O)CSc1nc2ccccc2c(=O)n1-c1cc(OC)ccc1OC`, the AC50 under setting [1] was 3.55 µM [rising, single point].

In the case of `CC(C)C[C@H]1CN=C(Nc2ccccc2)N1CCCC1CCCCC1`, under setting [1], the AC50 is 17.8 µM [falling, single point].

Take `C/C(=N\Nc1cc(C)nc(-c2ccccc2O)n1)c1ccccc1`: the AC50 is, setting by setting: under setting [1], 11.2 µM [falling, single point]; under setting [2], 0.447 µM [rising, full curve, poor fit].

For `COc1cccc(OCCCn2ccnc2)c1`, under setting [1], the AC50 is 2.82 µM [falling, partial curve, poor fit].

With `COc1cc(N/C(N)=N/c2nc(C)cc(C)n2)cc(OC)c1`, the AC50 under setting [1] is 35.5 µM [falling, single point].

As to `O=C(O)c1ccccc1C(=O)Nc1cc(-c2ccccc2)[nH]n1`, the AC50 under setting [1] is 35.5 µM [falling, single point].

For the compound `O=C(Nc1cccc(NC(=O)c2ccc(Br)o2)c1)c1ccccc1`, the AC50 under setting [1] was 1.58 µM [falling, full curve].

Turning to `CC(C)N1C(=O)S/C(=C\c2ccc(-c3ccc(Cl)c(C(=O)O)c3)o2)C1=O`, under setting [1], the AC50 is 12.6 µM [falling, partial curve, poor fit].

For the compound `CC1=C(CC(=O)O)c2cc(F)ccc2/C1=C\c1ccc(S(C)=O)cc1` (stereo not drawn), under setting [1], the AC50 was 3.98 µM [rising, single point].

As for `CCN(CC)CCCNc1nc2cc(OC)c(OC)cc2c2nc(-c3cccnc3)nn12`, the AC50 is 1.16 µM [falling, full curve] under setting [1] and 29.1 µM [falling, single point] under setting [2].

With `CN(C)S(=O)(=O)N1CCN(CC(O)COc2ccc(-c3ccccc3)cc2)CC1` (stereo not drawn), the AC50 under setting [1] was 31.6 µM [rising, partial curve, poor fit].

With `Cc1c(N=C2NN=C(c3ccc(Cl)cc3)CS2)c(=O)n(-c2ccccc2)n1C`, under setting [1], the AC50 was 15.8 µM [falling, single point].

As for `CCCC(=O)Nc1ccc2c(c1)nc(CN1CCN(C(=O)OCC)CC1)n2CC`, the AC50 reads like this: under setting [1], 3.98 µM [rising, partial curve, poor fit]; under setting [2], 11.2 µM [falling, partial curve].

As to `O=C(Nc1nnc(CSCc2ccccc2F)s1)c1cccc([N+](=O)[O-])c1`, under setting [1], the AC50 was 1.46 µM [rising, partial curve, poor fit].

Turning to `CCOC(=O)CCC(=O)Nc1ccccc1C(N)=O`, the AC50 under setting [1] was 0.731 µM [falling, partial curve, poor fit].

Regarding `Cc1ccc(S(=O)(=O)Cc2cc(F)c([N+](=O)[O-])cc2[N+](=O)[O-])cc1`, under setting [1], the concentration at half-maximal activity (AC50) is 3.98 µM [falling, full curve].

Turning to `Cc1ccc(CNC(=O)COC(=O)c2ccc(S(=O)(=O)NCc3ccco3)cc2)cc1`, under setting [1], the AC50 was 2.06 µM [rising, partial curve].

Regarding `CNc1ccccc1C(=O)OC(C)C(=O)Nc1ccc(Cl)cn1` (stereo not drawn), the AC50 under setting [1] is 35.5 µM [falling, single point].

Regarding `Cc1ccc(-c2nnc(SCC(=O)N/N=C/c3ccc(C)s3)n2-c2ccc(C)cc2)cc1`, the AC50 under setting [1] was 8.2 µM [rising, partial curve, poor fit].

Turning to `O=C1N(c2ccccc2)C2CS(=O)(=O)CC2N1c1ccc(Br)cc1` (stereo not drawn), under setting [1], the AC50 was 14.6 µM [rising, partial curve, poor fit].

In the case of `COc1ccc2nc(Nc3nc4cc5c(cc4s3)OCO5)sc2c1`, under setting [1], the AC50 was 4.11 µM [rising, partial curve].

On to `CN(C)CCCNC(=O)c1cc(S(=O)(=O)N2CCOCC2)ccc1F`, for which the AC50 under setting [1] was 0.00411 µM [rising, full curve, poor fit].

With `Nc1ccc(C(=O)Nc2ccc3nc(-c4ccncc4)[nH]c3c2)cc1`, the AC50 under setting [1] is 8.91 µM [falling, partial curve].

In the case of `COc1cc2[nH]c(=S)nc(NCc3cccs3)c2cc1OC`, under setting [1], the AC50 is 7.94 µM [falling, partial curve, poor fit].

For the compound `CC(=O)Nc1cccc(NS(=O)(=O)c2cccc3nsnc23)c1`, under setting [1], the AC50 is 0.92 µM [rising, partial curve, poor fit].

As to `CCN(CC)CCNC(=O)CSc1c2c(nc3cc(Cl)ccc13)CCCC2`, under setting [1], the AC50 was 12.6 µM [falling, partial curve, poor fit].

With `CC(C)(C)c1nnc(NC(=S)Nc2ccccc2)s1`, the AC50 under setting [1] was 2.24 µM [falling, full curve].

As for `CCOC(=O)c1cnc2ccc(C)cc2c1N(C)Cc1ccccc1`, the AC50 under setting [1] is 35.5 µM [falling, single point].

Turning to `COc1ccc(NC(=S)NCc2ccco2)cc1`, the AC50 under setting [1] is 6.31 µM [falling, single point].

For `Cn1c(-c2ccccc2)cnc1NCc1ccc(-c2ccccc2)cc1`, the AC50 under setting [1] was 35.5 µM [rising, single point] and the AC50 under setting [2] is 35.5 µM [falling, single point].

Turning to `COC(=O)CNC(c1ccccc1)c1cc(Br)ccc1NC(=O)CNC(=O)OCc1ccccc1` (stereo not drawn), the AC50 under setting [1] is 13 µM [falling, single point].

In the case of `O=C(Nc1cccc(Cl)c1)c1cncn1-c1ccc(F)cc1`, the AC50 under setting [1] was 3.55 µM [falling, partial curve, poor fit].

Turning to `CCN(C(=O)COC(=O)Cc1ccc(F)cc1)c1c(N)n(Cc2ccccc2)c(=O)[nH]c1=O`, the AC50 under setting [1] was 2.31 µM [rising, partial curve, poor fit].

With `O=C(N/N=C/c1coc2ccccc2c1=O)c1ccccc1Br`, under setting [1], the AC50 was 5.17 µM [falling, partial curve, poor fit].

As for `CCOC(=O)C/C(=N\Nc1ncnc2ccccc12)c1ccccc1`, the AC50 under setting [1] was 12.6 µM [falling, partial curve].

In the case of `CCn1nc(C)c(/C=N/NC(=O)c2ccoc2C)c1C`, the AC50 under setting [1] is 28.2 µM [falling, single point].

Turning to `CC1C(=O)N2CCCc3cc(NC(=O)C(=O)NCCc4ccc(F)cc4)cc1c32` (stereo not drawn), the AC50 is, setting by setting: under setting [1], 20.6 µM [rising, partial curve]; under setting [2], 20.6 µM [falling, single point].

In the case of `O=C1C(Nc2ccc(O)cc2)=C/C(=N/S(=O)(=O)c2cccs2)c2ccccc21`, under setting [1], the AC50 was 7.08 µM [falling, partial curve, poor fit].

As to `O=C(c1c[nH]c(C(=O)C(Cl)(Cl)Cl)c1)c1c(F)cccc1F`, the AC50 under setting [1] is 14.1 µM [falling, single point].

For `Cc1[nH]n(-c2cccc(Cl)c2)c(=O)c1C=NCc1ccco1`, the AC50 under setting [1] is 35.5 µM [falling, single point].

Regarding `CCC(OC(=O)CCc1nc2ccccc2[nH]c1=O)C(=O)c1ccccc1` (stereo not drawn), the AC50 under setting [1] is 29.1 µM [rising, single point].
